Taken from: PubChem BioAssay AID504804 (Drosophila RNAi Screening Center, 2011)

Assay: 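dsRNAs that improve Kc cell survival under doxorubicin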 (primary screen)
Cells: Drosophila Kc cells
Reagent: long dsRNA against Drosophila genes, 0.5 µg dsRNA per well
Timing: 96 h (48 h knock-down, then 48 h drug)
Conditions: doxorubicin 5 µg/ml for 48 h, added 48 h after dsRNA
Measurement: 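Viability measured as cellular ATP by luminescence after 48 h knock-down then 48 h doxorubicin at 5 µg/ml; unnormalised plate counts for each replicate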
Direction: raw ATP luminescence: higher = more viable cells, protection from doxorubicin
Active means: 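Active when both duplicate wells lie at least 2 SD above the plate mean and protection is confirmed by rescreening and independent dsRNAs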
The deposit covers about 19,000 reagents; this is a random part of those that have a named target and a result. Of all reagents, 47 (0.25%) are marked active. 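Signals are raw, not normalised; exact z-scores behind calls not deposited; actives needed confirmation, so some wells reaching 2 SD are inactive.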 Entries without a mark were called inactive. Names joined by + are all predicted targets of the reagent. Reagent sequences are not shown.

With knock-down of alpha-Est4aPsi (GeneID 3772290) [DRSC12473], the screen gave raw ATP luminescence, replicate 1 = 74943; raw ATP luminescence, replicate 2 = 59487. After knock-down of ush (GeneID 33225) [DRSC00843], the screen gave raw ATP luminescence, replicate 1 = 1.04e5; raw ATP luminescence, replicate 2 = 87177. TM4SF (GeneID 37786) [DRSC04661] scored raw ATP luminescence, replicate 1 = 51847; raw ATP luminescence, replicate 2 = 45240. For Rcd7 (GeneID 40126) [DRSC10100], the entry reads raw ATP luminescence, replicate 1 = 62957; raw ATP luminescence, replicate 2 = 66493. CG42714 (GeneID 10178862) [DRSC08798] showed raw ATP luminescence, replicate 1 = 1.51e5; raw ATP luminescence, replicate 2 = 1.11e5. Silencing of CG42534 (GeneID 43298) [DRSC14722] came out at: raw ATP luminescence, replicate 1 = 30170; raw ATP luminescence, replicate 2 = 31250.

With knock-down of CG42534 (GeneID 43298) [DRSC14759], the screen gave raw ATP luminescence, replicate 1 = 22410; raw ATP luminescence, replicate 2 = 19520. CG42534 (GeneID 43298) [DRSC16072] gave raw ATP luminescence, replicate 1 = 63150; raw ATP luminescence, replicate 2 = 52610. With knock-down of CG13989 (GeneID 33869) [DRSC02321], the record shows raw ATP luminescence, replicate 1 = 22287; raw ATP luminescence, replicate 2 = 30670. CG8665 (GeneID 35407) [DRSC03098] showed raw ATP luminescence, replicate 1 = 52533; raw ATP luminescence, replicate 2 = 64600. Silencing of CG31342 (GeneID 41592) [DRSC15349] resulted in: raw ATP luminescence, replicate 1 = 45677; raw ATP luminescence, replicate 2 = 25343. Against CG31342 (GeneID 41592) [DRSC16246], the values are raw ATP luminescence, replicate 1 = 1.29e5; raw ATP luminescence, replicate 2 = 89560.

Reformatted: results already given
{"gene knocked down": "CG42534 (GeneID 43298)", "dsRNA": "DRSC14722", "raw ATP luminescence, replicate 1": 30170, "raw ATP luminescence, replicate 2": 31250}
{"gene knocked down": "CG42534 (GeneID 43298)", "dsRNA": "DRSC14759", "raw ATP luminescence, replicate 1": 22410, "raw ATP luminescence, replicate 2": 19520}
{"gene knocked down": "CG42534 (GeneID 43298)", "dsRNA": "DRSC16072", "raw ATP luminescence, replicate 1": 63150, "raw ATP luminescence, replicate 2": 52610}
{"gene knocked down": "CG13989 (GeneID 33869)", "dsRNA": "DRSC02321", "raw ATP luminescence, replicate 1": 22287, "raw ATP luminescence, replicate 2": 30670}

More results follow.
Depletion of OstDelta (GeneID 37029) [DRSC06980] resulted in: raw ATP luminescence, replicate 1 = 62513; raw ATP luminescence, replicate 2 = 74333. Knock-down of AANATL3 (GeneID 35285) [DRSC02089] resulted in: raw ATP luminescence, replicate 1 = 57850; raw ATP luminescence, replicate 2 = 61247. For CG31121 (GeneID 42975) [DRSC15361] the deposit lists raw ATP luminescence, replicate 1 = 54760; raw ATP luminescence, replicate 2 = 62550. Knock-down of CG31121 (GeneID 42975) [DRSC15363] resulted in: raw ATP luminescence, replicate 1 = 53420; raw ATP luminescence, replicate 2 = 60080. With knock-down of CG34248 (GeneID 5740883) [DRSC09426] the results were raw ATP luminescence, replicate 1 = 90643; raw ATP luminescence, replicate 2 = 90763. CG4456 + Hsp22 [DRSC11187] gave raw ATP luminescence, replicate 1 = 90740; raw ATP luminescence, replicate 2 = 73123.

For CG4456 + Hsp22 [DRSC11192], the entry reads raw ATP luminescence, replicate 1 = 39313; raw ATP luminescence, replicate 2 = 41007. Against cdm (GeneID 42171) [DRSC16213], the entry reads raw ATP luminescence, replicate 1 = 47110; raw ATP luminescence, replicate 2 = 70243. With knock-down of CG32225 (GeneID 317926) [DRSC09657] the results were raw ATP luminescence, replicate 1 = 74127; raw ATP luminescence, replicate 2 = 52430. With knock-down of Rab4 (GeneID 36992) [DRSC07524] the results were raw ATP luminescence, replicate 1 = 63430; raw ATP luminescence, replicate 2 = 62677. With knock-down of Yif1 (GeneID 43217) [DRSC15817], the screen gave raw ATP luminescence, replicate 1 = 46770; raw ATP luminescence, replicate 2 = 42390. Knock-down of CR42785 (GeneID 10178921) [DRSC04962] gave: raw ATP luminescence, replicate 1 = 93103; raw ATP luminescence, replicate 2 = 1.08e5.

With knock-down of CG8369 (GeneID 50005) [DRSC16413], the record shows raw ATP luminescence, replicate 1 = 47057; raw ATP luminescence, replicate 2 = 49043. With knock-down of fwe (GeneID 39720) [DRSC09398], the record shows raw ATP luminescence, replicate 1 = 87917; raw ATP luminescence, replicate 2 = 88203. After knock-down of fwe (GeneID 39720) [DRSC10594], the record shows raw ATP luminescence, replicate 1 = 26603; raw ATP luminescence, replicate 2 = 20030. Against CG32793 (GeneID 31280) [DRSC18145] the deposit lists raw ATP luminescence, replicate 1 = 57270; raw ATP luminescence, replicate 2 = 58970. With knock-down of CG32793 (GeneID 31280) [DRSC18194], the record shows raw ATP luminescence, replicate 1 = 47110; raw ATP luminescence, replicate 2 = 53020. Knock-down of Tpl94D (GeneID 318658) [DRSC13593] gave: raw ATP luminescence, replicate 1 = 2.32e5; raw ATP luminescence, replicate 2 = 1.96e5.

For Vps25 (GeneID 35847) [DRSC06486], the entry reads raw ATP luminescence, replicate 1 = 47640; raw ATP luminescence, replicate 2 = 93787. CG7326 (GeneID 32882) [DRSC20037] gave raw ATP luminescence, replicate 1 = 2.35e5; raw ATP luminescence, replicate 2 = 2.48e5. With knock-down of CG4294 (GeneID 37579) [DRSC04460], the record shows raw ATP luminescence, replicate 1 = 47293; raw ATP luminescence, replicate 2 = 50353. Depletion of Or1a (GeneID 30978) [DRSC18689] came out at: raw ATP luminescence, replicate 1 = 67510; raw ATP luminescence, replicate 2 = 47760. With knock-down of CheB42c (GeneID 2768715) [DRSC04972] the results were raw ATP luminescence, replicate 1 = 52070; raw ATP luminescence, replicate 2 = 73057. Knock-down of Gr2a (GeneID 31093) [DRSC18603] resulted in: raw ATP luminescence, replicate 1 = 51710; raw ATP luminescence, replicate 2 = 23930.
